Measurements taken from US8501992B2, “Hydroxyphenyl sulfonamides as antiapoptotic bcl inhibitors” (Bristol-Myers Squibb Company, priority 2008, dated 2013).
Some of these results come from one statement about several compounds together.

These compounds were tested against T1, Bcl-b (Homo sapiens, UniProt Q9HD36) (assay: Bclb/Bim fluorescence polarization assay (FPA)). Settings: BIM BH3 peptide 5 nM, Bcl-b 40 nM, Ki calculated from FPA data.
T1 construct: without their C-terminal transmembrane domain; GST; made in house
T1 sequence (Q9HD36 1-182 limits assumed): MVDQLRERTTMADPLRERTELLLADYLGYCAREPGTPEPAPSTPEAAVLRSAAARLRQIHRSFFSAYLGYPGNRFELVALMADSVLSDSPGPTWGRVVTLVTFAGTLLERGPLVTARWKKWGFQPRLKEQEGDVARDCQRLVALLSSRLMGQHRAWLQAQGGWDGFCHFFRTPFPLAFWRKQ
Type: binding

Ki, ≤ 10 µM:
O=S(=O)(c1cc(C(F)(F)F)cc(Cl)c1O)N(Cc1ccc(F)cc1)Cc1cccc(-c2ccc(Cl)cc2)c1 [Example 233, 3-Chloro-N-((4′-chlorobiphenyl-3-yl)methyl)-N-(4-fluorobenzyl)-2-hydroxy-5-(trifluoromethyl)benzenesulfonamide]
O=S(=O)(c1cc(Cl)cc(C(F)(F)F)c1O)N(Cc1ccc(F)cc1)Cc1cccc(-c2ccc(Cl)cc2)c1 [Example 234, 5-Chloro-N-((4′-chlorobiphenyl-3-yl)methyl)-N-(4-fluorobenzyl)-2-hydroxy-3-(trifluoromethyl)benzenesulfonamide]
CCCCCCCCc1ccc(CN(Cc2cccc(Oc3ccc(F)cc3)c2)S(=O)(=O)c2cc(Cl)cc(Cl)c2O)cc1 [Example 235, 3,5-Dichloro-N-(3-(4-fluorophenoxy)benzyl)-2-hydroxy-N-(4-octylbenzyl)benzenesulfonamide]
CCCCCc1ccc(CN(Cc2cccc(Oc3ccc(F)cc3)c2)S(=O)(=O)c2cc(Cl)cc(Cl)c2O)cc1 [Example 236, 3,5-Dichloro-N-(3-(4-fluorophenoxy)-benzyl)-2-hydroxy-N-(4-pentyl-benzyl)benzenesulfonamide]
CCCCCCCCCN(Cc1cccc(Oc2ccc(F)cc2)c1)S(=O)(=O)c1cc(Cl)cc(Cl)c1O [Example 237, 3,5-Dichloro-N-(3-(4-fluorophenoxy)-benzyl)-2-hydroxy-N-nonyl-benzenesulfonamide]
CC(C)=CCCC(C)CN(Cc1cccc(Oc2ccc(F)cc2)c1)S(=O)(=O)c1cc(Cl)cc(Cl)c1O (centres unmarked) [Example 238, 3,5-Dichloro-N-(2,6-dimethylhept-5-enyl)-N-(3-(4-fluorophenoxy)-benzyl)-2-hydroxybenzene-sulfonamide]
CC(CCN(Cc1cccc(Oc2ccc(F)cc2)c1)S(=O)(=O)c1cc(Cl)cc(Cl)c1O)CC(C)(C)C (centres unmarked) [Example 239, 3,5-Dichloro-N-(3-(4-fluorophenoxy)-benzyl)-2-hydroxy-N-(3,5,5-trimethylhexyl) benzenesulfonamide]
COc1c(CN(Cc2ccc(F)cc2)S(=O)(=O)c2cc(Cl)cc(Cl)c2O)cccc1-c1ccc(Cl)cc1 [Example 240, 3,5-Dichloro-N-((4′-chloro-2-methoxybiphenyl-3-yl)methyl)-N-(4-fluorobenzyl)-2-hydroxybenzenesulfonamide]
O=S(=O)(c1cc(Cl)cc(Cl)c1O)N(Cc1ccc(F)cc1)Cc1ccc(Cl)c(-c2ccc(Cl)cc2)c1 [Example 241, 3,5-Dichloro-N-((4′,6-dichlorobiphenyl-3-yl)methyl)-N-(4-fluorobenzyl)-2-hydroxybenzenesulfonamide]
O=S(=O)(c1cc(Cl)cc(Cl)c1O)N(Cc1ccc(F)cc1)Cc1cc(Cl)cc(-c2ccc(Cl)cc2)c1 [Example 242]
O=S(=O)(c1cc(Cl)cc(Cl)c1O)N(Cc1ccc(F)cc1)Cc1cc(-c2ccc(Cl)cc2)ccc1Cl [Example 243]
Cc1ccc(CN(Cc2ccc(F)cc2)S(=O)(=O)c2cc(Cl)cc(Cl)c2O)cc1-c1ccc(Cl)cc1 [Example 244]
O=S(=O)(c1cc(Cl)cc(Cl)c1O)N(Cc1ccc(F)cc1)Cc1cc(Br)cc(-c2ccc(Cl)cc2)c1 [Example 245]
COc1cc(CN(Cc2ccc(F)cc2)S(=O)(=O)c2cc(Cl)cc(Cl)c2O)cc(-c2ccc(Cl)cc2)c1 [Example 246, 3,5-Dichloro-N-((4′-chloro-5-methoxybiphenyl-3-yl)methyl)-N-(4-fluorobenzyl)-2-hydroxybenzene-sulfonamide]
COc1ccc(-c2ccc(Cl)cc2)cc1CN(Cc1ccc(F)cc1)S(=O)(=O)c1cc(Cl)cc(Cl)c1O [Example 247, 3,5-Dichloro-N-((4′-chloro-4-methoxybiphenyl-3-yl)methyl)-N-(4-fluorobenzyl)-2-hydroxybenzene-sulfonamide]
COc1cc(CN(Cc2ccc(F)cc2)S(=O)(=O)c2cc(Cl)cc(Cl)c2O)cc(-c2ccc(Cl)cc2)c1OC [Example 248, 3,5-Dichloro-N-((4′-chloro-5,6-dimethoxybiphenyl-3-yl)methyl)-N-(4-fluorobenzyl)-2-hydroxy-benzenesulfonamide]
COc1c(Cl)cc(CN(Cc2ccc(F)cc2)S(=O)(=O)c2cc(Cl)cc(Cl)c2O)cc1-c1ccc(Cl)cc1 [Example 249, 3,5-Dichloro-N-((4′,5-chloro-6-methoxybiphenyl-3-yl)methyl)-N-(4-fluorobenzyl)-2-hydroxybenzenesulfonamide]
COc1ccc(CN(Cc2ccc(F)cc2)S(=O)(=O)c2cc(Cl)cc(Cl)c2O)cc1-c1ccc(Cl)cc1 [Example 250, 3,5-Dichloro-N-((4′-chloro-6-methoxybiphenyl-3-yl)methyl)-N-(4-fluorobenzyl)-2-hydroxy-benzenesulfonamide]
O=S(=O)(c1cc(Cl)cc(Cl)c1O)N(Cc1ccc(F)cc1)Cc1ccc(Oc2ccc(C(F)(F)F)cc2)cc1 [Example 251, 3,5-Dichloro-N-(4-fluorobenzyl)-2-hydroxy-N-(4-(4-(trifluoro-methyl)phenoxy)benzyl)benzene-sulfonamide]
COc1c(Cl)cc(CN(Cc2ccc(Oc3ccc(C(F)(F)F)cc3)cc2)S(=O)(=O)c2cc(Cl)cc(Cl)c2O)cc1-c1ccc(Cl)cc1 [Example 252, 3,5-Dichloro-N-((4′,5-dichloro-6-methoxybiphenyl-3-yl)methyl)-2-hydroxy-N-(4-(4-(trifluoromethyl)phenoxy)benzyl)-benzenesulfonamide]
O=S(=O)(c1cc(Cl)cc(Cl)c1O)N(Cc1ccc(F)cc1)Cc1ccc(-c2ccc(C(F)(F)F)cc2)cc1 [Example 253, 3-5-Dichloro-N-(4-fluorobenzyl)-2-hydroxy-N-((4′-(trifluoromethyl)-biphenyl-4-yl)methyl)benzene-sulfonamide]
CC(C)(C)c1ccc(-c2cccc(CN(Cc3ccc(F)cc3)S(=O)(=O)c3cc(Cl)cc(Cl)c3O)c2)cc1 [Example 254, N-((4′-tert-Butylbiphenyl-3-yl)methyl)-3,5-dichloro-N-(4-fluorobenzyl)-2-hydroxybenzene-sulfonamide]
O=S(=O)(c1cc(Cl)cc(Cl)c1O)N(Cc1ccc(F)cc1)Cc1cccc(-c2cccc(Cl)c2)c1 [Example 255, 3,5-Dichloro-N-((3′-chlorobiphenyl-3-yl)methyl)-N-(4-fluorobenzyl)-2-hydroxybenzenesulfonamide]
CCCCc1ccc(-c2cccc(CN(Cc3ccc(F)cc3)S(=O)(=O)c3cc(Cl)cc(Cl)c3O)c2)cc1 [Example 256, N-((4′-Butylbiphenyl-3-yl)methyl)-3,5-dichloro-N-(4-fluorobenzyl)-2-hydroxybenzenesulfonamide]
O=S(=O)(c1cc(Cl)cc(Cl)c1O)N(Cc1ccc(F)cc1)Cc1cccc(-c2ccccc2Cl)c1 [Example 257, 3,5-Dichloro-N-((2′-chlorobiphenyl-3-yl)methyl)-N-(4-fluorobenzyl)-2-hydroxybenzenesulfonamide]
O=S(=O)(c1cc(Cl)cc(Cl)c1O)N(Cc1ccc(F)cc1)Cc1ccc(-c2ccc(Cl)cc2)cc1 [Example 258, 3,5-Dichloro-N-((4′-chlorobiphenyl-4-yl)methyl)-N-(4-fluorobenzyl)-2-hydroxybenzenesulfonamide]
